Common to all, as to experiment: co-IP
Experiment [1] has as its target T1, FAM134B-V5, wild-type full-length (FL), stably expressed in PDAC cells (mouse) (UniProt Q8VE91).
T1 sequence: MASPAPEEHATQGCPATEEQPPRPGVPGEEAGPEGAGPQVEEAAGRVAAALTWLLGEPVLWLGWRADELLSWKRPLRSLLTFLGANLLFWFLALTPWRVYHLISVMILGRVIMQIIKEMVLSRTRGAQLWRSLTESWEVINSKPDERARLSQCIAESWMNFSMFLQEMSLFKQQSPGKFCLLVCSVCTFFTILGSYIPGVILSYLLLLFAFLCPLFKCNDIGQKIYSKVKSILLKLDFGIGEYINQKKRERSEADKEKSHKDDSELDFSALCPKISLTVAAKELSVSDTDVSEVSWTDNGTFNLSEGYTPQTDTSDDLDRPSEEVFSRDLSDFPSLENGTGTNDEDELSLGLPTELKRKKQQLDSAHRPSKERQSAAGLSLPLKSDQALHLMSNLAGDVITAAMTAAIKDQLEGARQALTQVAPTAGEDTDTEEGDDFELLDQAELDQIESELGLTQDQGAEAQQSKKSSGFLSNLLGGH

Amino acid sequences for entries named in this document (tags omitted). A change or cut given only in a name is not applied to a line headed by its entry. Residues count along the entry.
UniProt P61586: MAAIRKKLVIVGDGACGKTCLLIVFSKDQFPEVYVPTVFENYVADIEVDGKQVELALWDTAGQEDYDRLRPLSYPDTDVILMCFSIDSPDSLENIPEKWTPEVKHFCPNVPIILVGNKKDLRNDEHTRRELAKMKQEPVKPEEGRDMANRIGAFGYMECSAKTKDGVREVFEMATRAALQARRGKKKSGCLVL
UniProt P10644, residues 1-93: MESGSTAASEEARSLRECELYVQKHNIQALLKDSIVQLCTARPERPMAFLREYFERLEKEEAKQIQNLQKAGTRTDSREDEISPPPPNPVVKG
UniProt Q9DBC7: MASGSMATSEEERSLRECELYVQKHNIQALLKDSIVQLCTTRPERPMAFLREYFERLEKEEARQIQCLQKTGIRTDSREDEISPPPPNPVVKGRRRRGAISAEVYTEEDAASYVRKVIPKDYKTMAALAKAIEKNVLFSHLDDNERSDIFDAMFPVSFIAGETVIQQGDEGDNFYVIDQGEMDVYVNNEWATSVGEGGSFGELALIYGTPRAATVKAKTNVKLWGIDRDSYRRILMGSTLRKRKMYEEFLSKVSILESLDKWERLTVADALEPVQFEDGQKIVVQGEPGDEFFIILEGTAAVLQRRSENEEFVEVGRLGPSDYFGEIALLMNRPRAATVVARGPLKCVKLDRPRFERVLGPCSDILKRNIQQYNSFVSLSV

The target in experiment [2] is T2, FAM134B, endogenous in PDAC cells (mouse (endogenous in PDAC KPC cells)) (UniProt Q8VE91).
T2 sequence: T1 sequence

Experiment [3] addresses T3, FAM134C precipitated from PDAC cells (Figs. S3B, S5D-E) (UniProt Q9CQV4).
T3 sequence: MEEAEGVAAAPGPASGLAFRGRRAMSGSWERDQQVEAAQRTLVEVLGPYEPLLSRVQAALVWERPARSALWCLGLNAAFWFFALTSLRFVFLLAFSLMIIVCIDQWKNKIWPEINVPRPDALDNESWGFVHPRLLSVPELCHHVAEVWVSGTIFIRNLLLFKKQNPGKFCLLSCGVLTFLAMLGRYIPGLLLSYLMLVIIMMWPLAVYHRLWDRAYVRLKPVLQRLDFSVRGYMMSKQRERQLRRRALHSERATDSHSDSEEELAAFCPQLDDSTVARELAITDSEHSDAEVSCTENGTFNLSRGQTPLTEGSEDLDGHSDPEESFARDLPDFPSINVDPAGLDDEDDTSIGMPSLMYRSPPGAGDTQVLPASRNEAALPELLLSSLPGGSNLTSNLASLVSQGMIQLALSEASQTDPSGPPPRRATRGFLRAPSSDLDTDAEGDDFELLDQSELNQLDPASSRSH

In another experiment the target is FLAG-RhoA WT (UniProt P61586).
The target in experiment [4] is FLAG-RhoA T19N (inactive, GTP-binding deficient) (UniProt P61586).

Results are given in words; binding and its absence hold for the method and conditions named. In cells and extracts the contact can be indirect. Some entries that bind do so weakly or less than the wild type. For some assays here: Sequences can lack the tags named with a protein.

With “GFP-PRKAR1A NT (N-terminal 93 amino acids) (from UniProt P10644 1-93) (domain or fragment)”, the binding result in experiment [1] is given as “binds”.
Regarding “PRKAR1A, endogenous in PDAC cells (from UniProt Q9DBC7 1-381)”, the binding result in experiment [2], in experiment [1] and in experiment [3] was “binds” in each case.

B1: FAM134B-V5 expressed in HEK293FT cells (receptor, UniProt Q8VE91 1-480)
chain: T1 sequence
In the case of B1, the binding entry (with FLAG-RhoA WT; in experiment [4]) was “binds” throughout.

B2: FAM134C-V5 expressed in HEK293FT cells (receptor, UniProt Q9CQV4 1-466)
chain: T3 sequence
As to B2, the binding entry (in the experiment with FLAG-RhoA WT; in experiment [4]) was “binds” throughout.

The values are drawn from paper doi:10.1101/2025.11.01.685922.
